# Assay results: the supplement of paper PMC6411743
# Protein sequences, listed by entry. Tags and fused reporters are not part of them. Lines headed by an entry give the natural chain unless they say otherwise; changes in a name come on top.
# UniProt O75746: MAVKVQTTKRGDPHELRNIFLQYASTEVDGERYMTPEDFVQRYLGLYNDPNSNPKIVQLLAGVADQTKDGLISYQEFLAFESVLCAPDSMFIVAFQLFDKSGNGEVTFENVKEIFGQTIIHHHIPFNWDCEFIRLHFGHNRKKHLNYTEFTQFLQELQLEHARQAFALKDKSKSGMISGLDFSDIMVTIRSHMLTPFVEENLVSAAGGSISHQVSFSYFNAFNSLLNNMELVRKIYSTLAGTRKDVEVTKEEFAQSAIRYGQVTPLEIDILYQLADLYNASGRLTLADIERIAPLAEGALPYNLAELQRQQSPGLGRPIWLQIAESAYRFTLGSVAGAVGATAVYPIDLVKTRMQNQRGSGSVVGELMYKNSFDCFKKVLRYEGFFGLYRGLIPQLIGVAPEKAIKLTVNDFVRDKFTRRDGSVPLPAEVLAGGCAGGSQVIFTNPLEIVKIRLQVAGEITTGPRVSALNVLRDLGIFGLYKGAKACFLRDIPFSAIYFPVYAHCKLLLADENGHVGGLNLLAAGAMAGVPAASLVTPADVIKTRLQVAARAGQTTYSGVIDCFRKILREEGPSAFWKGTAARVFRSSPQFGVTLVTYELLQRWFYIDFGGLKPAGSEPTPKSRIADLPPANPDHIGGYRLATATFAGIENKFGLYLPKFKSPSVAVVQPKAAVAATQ
# UniProt O60921: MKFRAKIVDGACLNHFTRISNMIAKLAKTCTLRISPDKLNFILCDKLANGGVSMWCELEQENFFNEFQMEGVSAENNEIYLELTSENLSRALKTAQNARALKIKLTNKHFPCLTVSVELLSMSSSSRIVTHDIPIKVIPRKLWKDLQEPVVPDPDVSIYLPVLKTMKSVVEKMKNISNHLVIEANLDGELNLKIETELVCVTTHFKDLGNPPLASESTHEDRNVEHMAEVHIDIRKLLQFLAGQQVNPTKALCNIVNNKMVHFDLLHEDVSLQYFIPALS
# UniProt O75531: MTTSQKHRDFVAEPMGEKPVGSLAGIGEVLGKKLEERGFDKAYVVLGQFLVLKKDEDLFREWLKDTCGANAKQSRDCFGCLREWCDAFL
# UniProt O75037: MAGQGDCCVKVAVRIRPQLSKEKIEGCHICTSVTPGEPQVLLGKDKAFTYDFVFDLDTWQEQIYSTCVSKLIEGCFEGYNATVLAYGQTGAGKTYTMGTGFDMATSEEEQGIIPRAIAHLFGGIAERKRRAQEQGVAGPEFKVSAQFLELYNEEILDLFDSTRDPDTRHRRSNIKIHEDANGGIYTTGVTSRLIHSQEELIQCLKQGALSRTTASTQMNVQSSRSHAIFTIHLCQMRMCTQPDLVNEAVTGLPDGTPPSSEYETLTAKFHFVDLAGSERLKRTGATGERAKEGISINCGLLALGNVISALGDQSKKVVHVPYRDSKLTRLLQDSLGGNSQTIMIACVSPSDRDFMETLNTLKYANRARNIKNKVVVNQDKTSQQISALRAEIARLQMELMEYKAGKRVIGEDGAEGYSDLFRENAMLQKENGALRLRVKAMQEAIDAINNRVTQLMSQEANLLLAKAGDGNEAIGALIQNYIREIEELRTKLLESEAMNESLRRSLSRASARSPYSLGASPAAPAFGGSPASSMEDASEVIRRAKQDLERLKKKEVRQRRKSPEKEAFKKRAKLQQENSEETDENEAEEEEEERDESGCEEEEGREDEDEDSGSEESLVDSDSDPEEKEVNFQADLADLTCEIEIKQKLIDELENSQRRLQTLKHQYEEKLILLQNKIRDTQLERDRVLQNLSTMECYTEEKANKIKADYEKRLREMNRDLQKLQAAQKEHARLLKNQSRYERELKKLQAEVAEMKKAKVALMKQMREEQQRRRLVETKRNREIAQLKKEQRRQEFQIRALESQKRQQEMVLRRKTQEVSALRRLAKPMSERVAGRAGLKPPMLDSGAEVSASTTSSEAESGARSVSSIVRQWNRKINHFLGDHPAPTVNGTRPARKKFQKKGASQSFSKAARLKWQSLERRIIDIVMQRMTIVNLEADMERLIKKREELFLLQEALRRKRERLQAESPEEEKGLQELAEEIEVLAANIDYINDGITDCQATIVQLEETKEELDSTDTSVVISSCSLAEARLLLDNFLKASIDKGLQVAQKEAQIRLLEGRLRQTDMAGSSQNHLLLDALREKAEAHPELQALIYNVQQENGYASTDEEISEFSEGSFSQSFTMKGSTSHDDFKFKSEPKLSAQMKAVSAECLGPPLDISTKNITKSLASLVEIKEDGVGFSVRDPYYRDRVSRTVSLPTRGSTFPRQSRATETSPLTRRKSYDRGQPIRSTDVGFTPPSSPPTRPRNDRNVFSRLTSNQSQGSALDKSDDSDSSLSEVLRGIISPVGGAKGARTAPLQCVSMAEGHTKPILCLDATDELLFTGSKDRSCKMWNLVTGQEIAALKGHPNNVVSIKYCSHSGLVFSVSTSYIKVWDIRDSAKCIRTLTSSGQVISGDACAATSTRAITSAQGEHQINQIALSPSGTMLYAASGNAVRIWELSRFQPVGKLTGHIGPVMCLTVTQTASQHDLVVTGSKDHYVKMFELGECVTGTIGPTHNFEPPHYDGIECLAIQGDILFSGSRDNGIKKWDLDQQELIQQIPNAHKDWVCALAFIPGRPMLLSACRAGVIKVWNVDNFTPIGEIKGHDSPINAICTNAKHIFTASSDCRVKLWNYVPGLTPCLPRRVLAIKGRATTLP
# UniProt O95363: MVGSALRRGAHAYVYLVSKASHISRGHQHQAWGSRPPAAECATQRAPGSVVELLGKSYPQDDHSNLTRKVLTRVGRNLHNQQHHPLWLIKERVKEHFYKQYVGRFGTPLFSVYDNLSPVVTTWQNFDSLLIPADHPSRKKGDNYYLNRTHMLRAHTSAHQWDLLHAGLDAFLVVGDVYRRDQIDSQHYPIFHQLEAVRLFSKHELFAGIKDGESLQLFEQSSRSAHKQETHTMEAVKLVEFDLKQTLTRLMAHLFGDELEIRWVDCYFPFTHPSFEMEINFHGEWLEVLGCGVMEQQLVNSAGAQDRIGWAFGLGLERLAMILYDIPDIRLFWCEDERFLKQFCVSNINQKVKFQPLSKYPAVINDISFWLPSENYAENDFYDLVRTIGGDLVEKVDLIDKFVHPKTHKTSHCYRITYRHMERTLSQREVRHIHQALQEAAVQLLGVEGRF
# UniProt O95163: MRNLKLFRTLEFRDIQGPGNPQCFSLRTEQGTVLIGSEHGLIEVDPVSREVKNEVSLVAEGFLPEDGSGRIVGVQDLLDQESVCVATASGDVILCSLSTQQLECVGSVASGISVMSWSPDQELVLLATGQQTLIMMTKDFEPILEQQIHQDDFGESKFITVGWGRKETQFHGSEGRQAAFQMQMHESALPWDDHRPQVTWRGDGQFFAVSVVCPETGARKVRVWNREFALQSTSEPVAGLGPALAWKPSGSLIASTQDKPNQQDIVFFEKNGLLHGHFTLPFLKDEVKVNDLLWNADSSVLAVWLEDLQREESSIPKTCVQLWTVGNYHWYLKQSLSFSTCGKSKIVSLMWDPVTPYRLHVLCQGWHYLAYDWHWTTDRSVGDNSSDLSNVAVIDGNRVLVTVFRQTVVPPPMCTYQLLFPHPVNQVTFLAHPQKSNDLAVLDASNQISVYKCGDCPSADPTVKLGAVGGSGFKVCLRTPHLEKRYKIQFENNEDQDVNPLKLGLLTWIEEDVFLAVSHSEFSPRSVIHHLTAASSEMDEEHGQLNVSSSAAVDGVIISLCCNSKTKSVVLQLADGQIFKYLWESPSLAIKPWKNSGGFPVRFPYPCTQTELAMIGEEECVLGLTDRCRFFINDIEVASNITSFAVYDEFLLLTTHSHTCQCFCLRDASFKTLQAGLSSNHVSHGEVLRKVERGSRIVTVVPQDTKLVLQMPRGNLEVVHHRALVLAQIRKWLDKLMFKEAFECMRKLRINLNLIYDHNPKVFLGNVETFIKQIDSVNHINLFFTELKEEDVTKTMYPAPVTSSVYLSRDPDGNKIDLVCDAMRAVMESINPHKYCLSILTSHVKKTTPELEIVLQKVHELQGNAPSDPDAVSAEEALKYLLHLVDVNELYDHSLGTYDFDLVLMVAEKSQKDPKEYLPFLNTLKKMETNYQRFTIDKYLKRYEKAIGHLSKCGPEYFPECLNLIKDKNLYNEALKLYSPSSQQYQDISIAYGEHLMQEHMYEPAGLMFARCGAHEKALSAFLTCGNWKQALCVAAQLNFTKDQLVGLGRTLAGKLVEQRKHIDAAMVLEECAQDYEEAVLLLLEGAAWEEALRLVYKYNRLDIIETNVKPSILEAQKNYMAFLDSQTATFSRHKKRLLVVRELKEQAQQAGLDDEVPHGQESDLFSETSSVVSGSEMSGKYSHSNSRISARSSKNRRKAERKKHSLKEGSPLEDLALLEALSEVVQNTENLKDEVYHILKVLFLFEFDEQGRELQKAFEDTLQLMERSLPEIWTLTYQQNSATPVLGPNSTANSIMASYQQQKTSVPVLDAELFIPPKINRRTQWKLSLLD
# UniProt O94830: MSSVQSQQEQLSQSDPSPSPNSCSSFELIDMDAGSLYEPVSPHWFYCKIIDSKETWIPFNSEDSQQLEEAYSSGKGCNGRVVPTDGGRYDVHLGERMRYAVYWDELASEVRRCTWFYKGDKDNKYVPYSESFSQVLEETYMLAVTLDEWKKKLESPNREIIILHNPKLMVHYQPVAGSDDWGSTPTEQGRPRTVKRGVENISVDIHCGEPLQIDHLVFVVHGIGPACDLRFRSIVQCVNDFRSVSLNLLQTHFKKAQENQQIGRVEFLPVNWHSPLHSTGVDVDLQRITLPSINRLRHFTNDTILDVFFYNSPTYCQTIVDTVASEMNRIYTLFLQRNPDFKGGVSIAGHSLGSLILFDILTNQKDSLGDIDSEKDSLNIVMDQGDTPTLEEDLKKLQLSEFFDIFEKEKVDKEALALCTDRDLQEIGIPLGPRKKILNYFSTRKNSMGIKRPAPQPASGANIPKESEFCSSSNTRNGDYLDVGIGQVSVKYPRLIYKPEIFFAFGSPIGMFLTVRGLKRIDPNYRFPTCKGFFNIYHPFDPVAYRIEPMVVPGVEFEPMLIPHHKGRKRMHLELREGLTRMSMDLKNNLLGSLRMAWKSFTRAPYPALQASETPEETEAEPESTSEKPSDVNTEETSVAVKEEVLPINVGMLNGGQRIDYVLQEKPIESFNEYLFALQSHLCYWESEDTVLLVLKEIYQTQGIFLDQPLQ
# UniProt O75940: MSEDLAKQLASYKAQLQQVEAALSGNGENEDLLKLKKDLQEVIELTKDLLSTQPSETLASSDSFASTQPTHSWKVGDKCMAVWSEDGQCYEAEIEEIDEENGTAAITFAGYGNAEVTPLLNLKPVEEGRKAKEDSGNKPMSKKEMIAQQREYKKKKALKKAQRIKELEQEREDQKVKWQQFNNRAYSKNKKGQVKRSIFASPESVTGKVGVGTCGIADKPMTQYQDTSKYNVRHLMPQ
# UniProt O60232: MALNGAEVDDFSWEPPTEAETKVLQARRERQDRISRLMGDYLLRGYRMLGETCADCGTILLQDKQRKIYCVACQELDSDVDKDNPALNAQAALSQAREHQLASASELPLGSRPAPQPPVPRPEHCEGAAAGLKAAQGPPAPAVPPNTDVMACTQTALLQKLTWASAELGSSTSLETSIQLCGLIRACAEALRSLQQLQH
# UniProt O94804: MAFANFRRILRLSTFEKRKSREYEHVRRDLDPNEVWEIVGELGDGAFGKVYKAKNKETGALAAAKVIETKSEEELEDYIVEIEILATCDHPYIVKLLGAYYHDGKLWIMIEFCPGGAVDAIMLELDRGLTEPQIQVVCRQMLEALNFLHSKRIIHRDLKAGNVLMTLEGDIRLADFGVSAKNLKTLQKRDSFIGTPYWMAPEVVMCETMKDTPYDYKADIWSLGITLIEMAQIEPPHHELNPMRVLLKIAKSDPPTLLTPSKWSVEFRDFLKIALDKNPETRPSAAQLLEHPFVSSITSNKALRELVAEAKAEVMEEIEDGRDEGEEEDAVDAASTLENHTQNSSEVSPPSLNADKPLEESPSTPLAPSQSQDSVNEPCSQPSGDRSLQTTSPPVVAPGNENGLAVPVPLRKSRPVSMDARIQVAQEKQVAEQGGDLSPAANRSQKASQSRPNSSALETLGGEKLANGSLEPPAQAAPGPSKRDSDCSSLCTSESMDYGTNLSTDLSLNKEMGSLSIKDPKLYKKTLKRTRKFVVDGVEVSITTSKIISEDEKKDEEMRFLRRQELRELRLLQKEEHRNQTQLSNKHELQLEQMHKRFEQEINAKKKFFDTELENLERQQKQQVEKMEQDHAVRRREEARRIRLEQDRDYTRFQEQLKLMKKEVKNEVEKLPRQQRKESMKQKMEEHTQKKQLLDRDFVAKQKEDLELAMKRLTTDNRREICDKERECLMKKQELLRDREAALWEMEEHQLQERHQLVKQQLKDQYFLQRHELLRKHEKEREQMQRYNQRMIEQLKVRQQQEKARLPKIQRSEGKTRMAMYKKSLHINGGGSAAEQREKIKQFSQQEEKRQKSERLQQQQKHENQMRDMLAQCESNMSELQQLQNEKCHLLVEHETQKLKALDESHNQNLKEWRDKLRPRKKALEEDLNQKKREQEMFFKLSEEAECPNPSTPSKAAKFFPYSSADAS
# ± gives the standard deviation of the averaged measurements. The list shows a part of the results, in another mix than the full data.
# Compound: Nc1ncnc2c1ncn2[C@@H]1O[C@H](COP(=O)(O)OP(=O)(O)NP(=O)(O)O)[C@@H](O)[C@H]1O [adenylyl imidodiphosphate]
# Experiment: NP40-soluble protein abundance relative to vehicle (solubility fold change) (ratio); higher = more soluble protein in presence of AMP-PNP
# Method in brief: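 Eight concentrations, 0.1 to 10 mM, were tested on Jurkat crude lysate for 10 min at room temperature and then 3 min at 37 °C, in three independent experiments. The lysate was solubilised with 0.8% NP40 and benzonase, ultracentrifuged, and the supernatant TMT-labelled for LC-MS/MS. Each value is the fold change against the detergent-processed vehicle in its own replicate, from vsn-normalised intensities.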
Target,NP40-soluble protein abundance (concentration: 1mM),NP40-soluble protein abundance (concentration: 2mM),NP40-soluble protein abundance (concentration: 4mM),NP40-soluble protein abundance (concentration: 6mM),NP40-soluble protein abundance (concentration: 8mM),NP40-soluble protein abundance (concentration: 10mM)
UTP20 (UniProt O75691),1.04 ± 0.065,1.04 ± 0.011,1.04 ± 0.039,1.03 ± 0.034,1.05 ± 0.016,1.08 ± 0.055
UniProt O94973 and related entries,1.02 ± 0.028,0.977 ± 0.029,1.05 ± 0.033,1.06 ± 0.037,1.08 ± 0.03,1.09 ± 0.033
SLC25A12 (UniProt O75746),0.98 ± 0.011,0.943 ± 0.082,0.985 ± 0.048,0.973 ± 0.035,0.977 ± 0.041,0.986 ± 0.046
TUSC2 (UniProt O75896),1.01 ± 0.035,1 ± 0.037,0.9769 ± 0.0092,1 ± 0.047,1.02 ± 0.049,1.04 ± 0.027
UniProt O94826,1 ± 0.013,1.03 ± 0.031,0.986 ± 0.04,1.01 ± 0.013,0.986 ± 0.032,0.981 ± 0.047
HUS1 (UniProt O60921),0.993 ± 0.017,0.963 ± 0.035,0.974 ± 0.022,0.991 ± 0.015,0.997 ± 0.019,0.974 ± 0.013
BANF1 (UniProt O75531),2.32 ± 0.38,2.76 ± 0.16,3 ± 0.25,3.73 ± 0.25,4.03 ± 0.2,4.25 ± 0.21
UniProt O75037 and related entries,1.03 ± 0.042,1.06 ± 0.018,1.04 ± 0.05,1.01 ± 0.04,1 ± 0.032,1.04 ± 0.052
UniProt O75528 and related entries,1.03 ± 0.022,1.1 ± 0.089,1.05 ± 0.076,1.05 ± 0.058,1.02 ± 0.02,1.04 ± 0.046
CPSF4 (UniProt O95639),1.01 ± 0.034,0.996 ± 0.03,1.02 ± 0.074,1.03 ± 0.049,1.08 ± 0.072,1.11 ± 0.13
UniProt O95104 and related entries,1.1 ± 0.033,1.22 ± 0.083,1.26 ± 0.039,1.34 ± 0.14,1.39 ± 0.071,1.46 ± 0.063
FARS2 (UniProt O95363),0.9733 ± 0.0048,0.856 ± 0.13,0.943 ± 0.01,0.9111 ± 0.0032,0.919 ± 0.033,0.876 ± 0.029
UniProt O94966-6|O94966-7,0.976 ± 0.019,0.945 ± 0.051,0.978 ± 0.013,0.963 ± 0.017,0.969 ± 0.031,0.946 ± 0.025
UniProt O95163,0.9554 ± 0.0019,0.895 ± 0.12,0.956 ± 0.023,0.931 ± 0.031,0.949 ± 0.044,0.886 ± 0.054
AHSA1 (UniProt O95433),0.991 ± 0.033,0.927 ± 0.045,0.94 ± 0.032,0.945 ± 0.017,0.946 ± 0.029,0.905 ± 0.014
UniProt O95235 and related entries,1.05 ± 0.028,1.05 ± 0.026,1.09 ± 0.047,1.12 ± 0.044,1.12 ± 0.031,1.12 ± 0.06
SMC2 (UniProt O95347),0.983 ± 0.02,0.9867 ± 0.008,0.967 ± 0.014,0.967 ± 0.029,0.946 ± 0.018,0.957 ± 0.027
UniProt O75175 and related entries,0.995 ± 0.033,1.09 ± 0.08,1.1 ± 0.062,1.16 ± 0.09,1.15 ± 0.1,1.21 ± 0.094
VAPB (UniProt O95292),1.05 ± 0.028,1.08 ± 0.07,1.03 ± 0.06,1.033 ± 0.0086,1 ± 0.041,1.03 ± 0.064
CD2BP2 (UniProt O95400),1.02 ± 0.056,1.05 ± 0.065,1.02 ± 0.059,1.02 ± 0.069,0.981 ± 0.073,1.05 ± 0.078
UniProt O75379 and related entries,1.01 ± 0.042,1.05 ± 0.076,1.01 ± 0.026,0.988 ± 0.021,0.995 ± 0.035,1 ± 0.016

Target,NP40-soluble protein abundance (concentration: 1mM),NP40-soluble protein abundance (concentration: 2mM),NP40-soluble protein abundance (concentration: 4mM),NP40-soluble protein abundance (concentration: 6mM),NP40-soluble protein abundance (concentration: 8mM),NP40-soluble protein abundance (concentration: 10mM)
UniProt O75190-2|A0A0J9YX62|O75190 and related entries,0.872 ± 0.036,0.86 ± 0.043,0.845 ± 0.056,0.825 ± 0.052,0.821 ± 0.023,0.778 ± 0.062
DDHD2 (UniProt O94830),0.99 ± 0.071,0.932 ± 0.047,0.9754 ± 0.0091,0.974 ± 0.044,0.962 ± 0.04,0.933 ± 0.023
UniProt O75525 and related entries,1.04 ± 0.03,1.05 ± 0.048,1.07 ± 0.036,1.1 ± 0.058,1.11 ± 0.091,1.11 ± 0.091
UBXN7 (UniProt O94888),1.02 ± 0.068,1.01 ± 0.065,1.01 ± 0.077,0.982 ± 0.033,0.989 ± 0.038,0.976 ± 0.085
UniProt O60861 and related entries,1.06 ± 0.024,1.08 ± 0.067,1.05 ± 0.044,1.05 ± 0.011,1.04 ± 0.043,1.05 ± 0.029
UniProt O75419 and related entries,0.974 ± 0.04,0.939 ± 0.044,0.974 ± 0.057,0.978 ± 0.028,0.994 ± 0.01,0.959 ± 0.019
MRPS14 (UniProt O60783),1 ± 0.087,0.9326 ± 0.0016,0.939 ± 0.014,0.929 ± 0.021,0.936 ± 0.082,0.92 ± 0.066
SMNDC1 (UniProt O75940),1.07 ± 0.012,1.17 ± 0.1,1.15 ± 0.024,1.21 ± 0.036,1.24 ± 0.034,1.31 ± 0.08
UniProt O60762 and related entries,0.92 ± 0.019,0.858 ± 0.092,0.992 ± 0.09,1.02 ± 0.065,1.08 ± 0.037,1.02 ± 0.087
UniProt O60313-2|E5KLJ5,1.01 ± 0.013,0.98 ± 0.071,0.988 ± 0.027,0.968 ± 0.019,0.96 ± 0.027,0.954 ± 0.029
UniProt O60506 and related entries,0.975 ± 0.074,0.973 ± 0.054,0.993 ± 0.08,0.994 ± 0.071,1.01 ± 0.081,1.01 ± 0.077
ROCK2 (UniProt O75116),1.04 ± 0.027,1.09 ± 0.022,1.04 ± 0.031,1.02 ± 0.035,0.992 ± 0.017,1.03 ± 0.035
UniProt O60232,1.03 ± 0.058,1.04 ± 0.033,1.01 ± 0.078,0.993 ± 0.043,1.01 ± 0.067,0.985 ± 0.029
UniProt O94804,1.03 ± 0.017,1.04 ± 0.031,1.01 ± 0.027,0.987 ± 0.029,0.96 ± 0.012,0.991 ± 0.048
UniProt O95551,0.999 ± 0.02,0.982 ± 0.014,0.9808 ± 0.0076,1.01 ± 0.031,0.997 ± 0.05,1.01 ± 0.046
O60344 and related entries (UniProt P0DPD6),0.9761 ± 0.0039,0.9971 ± 0.0055,0.9621 ± 0.0038,0.992 ± 0.023,1.022 ± 0.0092,0.9766 ± 0.0043
UniProt O60869 and related entries,1.05 ± 0.021,1.1 ± 0.11,1.07 ± 0.062,1.12 ± 0.026,1.16 ± 0.055,1.19 ± 0.054
ERAL1 (UniProt O75616),0.7647 ± 0.0038,0.6675 ± 0.0031,0.716 ± 0.036,0.681 ± 0.011,0.674 ± 0.062,0.636 ± 0.04
UniProt O95475,0.989 ± 0.047,1.02 ± 0.037,1.009 ± 0.0082,1.06 ± 0.066,1.12 ± 0.077,1.1 ± 0.066
VPS4B (UniProt O75351),1.022 ± 0.0068,1.02 ± 0.018,0.997 ± 0.034,1.03 ± 0.025,1.01 ± 0.014,1.01 ± 0.053
UniProt O75381 and related entries,0.996 ± 0.023,1.024 ± 0.009,0.999 ± 0.046,0.968 ± 0.068,0.98 ± 0.073,1 ± 0.11

# In another format: results already given
Target	NP40-soluble protein abundance (concentration: 1mM)	NP40-soluble protein abundance (concentration: 2mM)	NP40-soluble protein abundance (concentration: 4mM)	NP40-soluble protein abundance (concentration: 6mM)	NP40-soluble protein abundance (concentration: 8mM)	NP40-soluble protein abundance (concentration: 10mM)
UniProt O94973 and related entries	1.02 ± 0.028	0.977 ± 0.029	1.05 ± 0.033	1.06 ± 0.037	1.08 ± 0.03	1.09 ± 0.033
SLC25A12 (UniProt O75746)	0.98 ± 0.011	0.943 ± 0.082	0.985 ± 0.048	0.973 ± 0.035	0.977 ± 0.041	0.986 ± 0.046
TUSC2 (UniProt O75896)	1.01 ± 0.035	1 ± 0.037	0.9769 ± 0.0092	1 ± 0.047	1.02 ± 0.049	1.04 ± 0.027
UniProt O94826	1 ± 0.013	1.03 ± 0.031	0.986 ± 0.04	1.01 ± 0.013	0.986 ± 0.032	0.981 ± 0.047
HUS1 (UniProt O60921)	0.993 ± 0.017	0.963 ± 0.035	0.974 ± 0.022	0.991 ± 0.015	0.997 ± 0.019	0.974 ± 0.013
BANF1 (UniProt O75531)	2.32 ± 0.38	2.76 ± 0.16	3 ± 0.25	3.73 ± 0.25	4.03 ± 0.2	4.25 ± 0.21
UniProt O75037 and related entries	1.03 ± 0.042	1.06 ± 0.018	1.04 ± 0.05	1.01 ± 0.04	1 ± 0.032	1.04 ± 0.052
UniProt O75528 and related entries	1.03 ± 0.022	1.1 ± 0.089	1.05 ± 0.076	1.05 ± 0.058	1.02 ± 0.02	1.04 ± 0.046
CPSF4 (UniProt O95639)	1.01 ± 0.034	0.996 ± 0.03	1.02 ± 0.074	1.03 ± 0.049	1.08 ± 0.072	1.11 ± 0.13
UniProt O95104 and related entries	1.1 ± 0.033	1.22 ± 0.083	1.26 ± 0.039	1.34 ± 0.14	1.39 ± 0.071	1.46 ± 0.063
FARS2 (UniProt O95363)	0.9733 ± 0.0048	0.856 ± 0.13	0.943 ± 0.01	0.9111 ± 0.0032	0.919 ± 0.033	0.876 ± 0.029
UniProt O94966-6|O94966-7	0.976 ± 0.019	0.945 ± 0.051	0.978 ± 0.013	0.963 ± 0.017	0.969 ± 0.031	0.946 ± 0.025
UniProt O95163	0.9554 ± 0.0019	0.895 ± 0.12	0.956 ± 0.023	0.931 ± 0.031	0.949 ± 0.044	0.886 ± 0.054
